This passage reports binding results from patent US20160130579A1.

These are yes or no findings as the source states them, for the method shown. Some entries that bind do so weakly or less than the wild type.

The target of test [1] is T1, prohibitin (UniProt P67778).
T1 sequence (looked up): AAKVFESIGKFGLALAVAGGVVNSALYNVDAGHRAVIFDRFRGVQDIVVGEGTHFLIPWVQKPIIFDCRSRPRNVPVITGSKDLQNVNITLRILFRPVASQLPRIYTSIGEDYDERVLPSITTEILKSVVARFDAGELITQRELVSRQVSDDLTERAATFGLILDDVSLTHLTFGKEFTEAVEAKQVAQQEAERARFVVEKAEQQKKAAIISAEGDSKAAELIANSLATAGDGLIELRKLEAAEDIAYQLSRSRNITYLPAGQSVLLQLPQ
The experiment in a line: immunoprecipitation.

In test [2] the target is T1, prohibitin. The experiment in a line: competition assay on 3T3-L1 preadipocytes and mature adipocytes, confocal microscopy.
Test [3] concerns the target T1, prohibitin. The experiment in a line: staining of 3T3-L1 preadipocytes and mature adipocytes with RhoB-ATS.

CKGGRAKDC [adipocyte-targeting sequence (ATS) peptide, free]: the binding entry in test [1] and in test [2] was “binds” throughout.

Regarding CKGGRAKDC (Rhodamine B conjugated (position not given)) [Rhodamine B conjugated ATS peptide], in test [3], the binding entry is on record as “binds”.
